Source: PMC12608155, “Discovery of Potential Antileishmanial Compounds Through Phenotypic Screening of an Alkaloid Library” (Molecules, 2025)

Assays:
RAW 264.7 = test: Cytotoxicity in RAW 264.7 cells (alamarBlue, 72 h); settings: calculated between RAW 264.7 cells and intramacrophagic amastigotes
Experimental: (§1) To this end, we calculated SIs from 16 preselected results from the ex vivo system. With this aim, dose–response curves were performed in duplicate across at least three independent experiments using RAW 264.7 mouse macrophages (as a model of host cells harboring amastigotes) and HepG2 (as a model for assessing systemic toxicity).
(§2) To evaluate the safety of the selected compounds, two cell lines were employed: RAW 264.7 (a mouse macrophage-derived cell line) and HepG2 (a human hepatoma cell line). Furthermore, to determine the intestinal tolerance relevant to potential oral administration, mouse intestinal organoids were prepared.
(§3) RAW 264.7 and HepG2 were routinely cultured under standard conditions. RAW 264.7 cells were maintained in RPMI medium (Gibco) supplemented with, 25 mM HEPES, 24 mM NaHCO3, 2 mM L-glutamine, mixture of antibiotics and 10% FBS. HepG2 cells were cultured in DMEM/F-12 (Gibco) and supplemented 10% of FBS. For cytotoxicity assays, 10,000 cells per well were seeded into 96-well plates and incubated overnight at 37 °C with 5% of CO2. Subsequently, 2-fold serial dilutions of the compounds were added and incubated for 72 h. Cell viability using the alamarBlue™ assay according to the manufacturer’s instructions, and fluorescence was measured with a Varioskan™ LUX microplate reader (ThermoFisher Scientific, Waltham, MA, USA). Non-linear regression analyses were performed using SigmaPlot^TM software (version 10.0) to calculate CC50. Data were obtained from at least three independent experiments performed in duplicate.

HepG2 = test: Cytotoxicity in HepG2 cells (alamarBlue, 72 h); settings: calculated between HepG2 cells and intramacrophagic amastigotes
Experimental: as §1, §2, §3

SMILES	SI1 (RAW 264.7)	SI2 (HepG2)
C[n+]1cc2c3c(ccc2c2ccc4cc5c(cc4c21)OCO5)OCO3 [Sanguinarine]	2.2	2.4
CN1Cc2c(ccc3c2OCO3)-c2ccc3cc4c(cc3c21)OCO4 [Dihydrosanguinarine]	5.4	>4.7
COc1cc2c3c(cc4ccccc4c3c1OC)N(C)CC2 [Dehydronuciferine]	>0.37	
COc1ccc2c(C)c3[n+](cc2c1OC)CCc1cc2c(cc1-3)OCO2 [13-Methylberberine]	>13.3	37.7
c1c2c(cc3c1OCO3)-c1cc3ccc4c(c3c[n+]1CC2)OCO4 [Coptisine]	>2.9	>2.9
COc1ccc2c(c[n+](C)c3c4cc5c(cc4ccc23)OCO5)c1OC [Chelerythrine]	3.4	3.4
CC[C@@H]1[C@H]2CCCCN3[C@H]2[C@H](C[C@H]3[C@@H]2C[C@H](C)C(=O)O2)[C@@H]2[C@H]1OC(=O)[C@H]2C [Tuberostemonine]	>1.0	
CC[C@@H]1[C@H]2CCCCN3[C@H]2[C@@H](C[C@H]3[C@@H]2C[C@H](C)C(=O)O2)[C@H]2[C@@H]1OC(=O)[C@H]2C [Neotuberostemonine]	>1.6	
c1c2c(cc3c1OCO3)-c1cc3cc4c(cc3c[n+]1CC2)OCO4 [Pseudocoptisine]	>7.0	>7.0
CCOC1c2c(ccc3c2OCO3)-c2ccc3cc4c(cc3c2N1C)OCO4 (stereo not shown) [Ethoxysanguinarine]	1.9	1.7
COc1ccc2c(c1OC)C(OC)N(C)c1c-2ccc2cc3c(cc12)OCO3 (stereo not shown) [Angoline]	4.6	4.5
